PubChem BioAssay AID504774 – Drosophila RNAi Screening Center – 2011
Screen: 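Genes required for cells to withstand methyl methanesulphonate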 (primary screen). Cell system: Drosophila Kc167 cells. Reagents: long dsRNA against Drosophila genes, about 0.25 µg dsRNA per well. Time to read-out: about 6 days: 3 days knock-down, then 3 days with or without MMS. Challenge: methyl methanesulphonate 0.004% (w/v) for 3 days after knock-down. Read-out: 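Viability in wells given MMS, read as ATP luminescence, normalised by quantiles plate by plate and averaged across replicates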. Reading the numbers: mean viability with MMS: higher = more surviving cells after MMS.
The deposit covers about 23,000 reagents; shown is a random part of those with a known target gene and a result. 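Values are quantile-normalised luminescence on an arbitrary scale; higher means more cells surviving MMS.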 The numbers tell different reagents against one gene apart. A plus sign joins genes that one reagent is predicted to hit. Further read-outs or replicates are left out here.

mean viability with MMS, by gene and reagent
shrb: #1 3.34e6
Vamp7: #1 3.45e6
CG4995: #1 3.92e6
Treh: #1 3.67e6
CG11113: #1 3.54e6
CG30383: #1 3.52e6
Pat1: #1 3.44e6
CG8745: #1 3.42e6; #2 3.36e6; #3 3.58e6
spag: #1 3.48e6
hay: #1 3.20e6
Hex-C: #1 3.37e6
CG10265: #1 3.19e6; #2 3.61e6
Sfxn1-3: #1 3.78e6
Tsp5D: #1 3.55e6
M6: #1 3.45e6
CG9928: #1 3.53e6

In a second layout: results already given
gene	reagent	mean viability with MMS
CG10265	2	3.61e6
Sfxn1-3	1	3.78e6
Tsp5D	1	3.55e6
M6	1	3.45e6

The listing continues:
mean viability with MMS, by gene and reagent
CG6675: #1 3.66e6
CG14252: #1 3.54e6
tud: #1 3.59e6
Naprt: #1 3.43e6
CG8366: #1 3.44e6
Mppe: #1 3.60e6
Cad87A: #1 3.53e6
CG17108: #1 3.60e6; #2 3.48e6
CG11159: #1 3.59e6
CG4806: #1 3.42e6
CG11771: #1 3.50e6
Rcd-1: #1 3.69e6
CG13840: #1 3.34e6; #2 3.56e6
CG8191: #1 3.61e6
D: #1 3.59e6
CG7378: #1 3.57e6
CG13796 + CG31904: #1 3.59e6
CG14693: #1 3.52e6
CG10565: #1 3.52e6
Ufd1: #1 3.46e6
RpL7: #1 2.87e6
CG5404: #1 3.29e6
Akap200: #1 3.36e6
Cht11: #1 3.60e6
CG31688 + CG31687: #1 3.29e6
